Values quoted from earlier work in patent US10624913B2, “Diagnostics and methods for treatment of non-alcoholic hepatic steatosis and hepatic steatohepatitis, and prevention of complications thereof” (VOLANT HOLDINGS GMBH, priority 2011, dated 2020).
For at least one compound, name, drawing or mass did not settle the structure. Some of these results come from one statement about several compounds together.

System: Hepatitis C virus
Conditions: cited from earlier work

**Q.** Which results are given for `CC(C)(C)NC(=O)N[C@H](C(=O)N1C[C@H]2[C@@H]([C@H]1C(=O)NC(CC1CCC1)C(=O)C(N)=O)C2(C)C)C(C)(C)C` (some centres unmarked) [boceprevir]?
**A.** sustained virological response (agent added to pegIFN/Riba): 65-75%; sustained virological response (SVR) (genotype 1 chronic hepatitis C, words): doubles the sustained response rate
